Paper PMC6179184, “Interaction of the Warsaw breakage syndrome DNA helicase DDX11 with the replication fork-protection factor Timeless promotes sister chromatid cohesion” (PLoS Genetics, 2018)
These are yes or no findings as the source states them, for the method shown. Binding seen in cells or lysates may run through a third protein. Some entries that bind do so weakly or less than the wild type. Where a sequence is shown, tags or fusion partners need not be part of it.

The chains behind the UniProt entries cited, without tags or fusion partners.
UniProt Q9UNS1: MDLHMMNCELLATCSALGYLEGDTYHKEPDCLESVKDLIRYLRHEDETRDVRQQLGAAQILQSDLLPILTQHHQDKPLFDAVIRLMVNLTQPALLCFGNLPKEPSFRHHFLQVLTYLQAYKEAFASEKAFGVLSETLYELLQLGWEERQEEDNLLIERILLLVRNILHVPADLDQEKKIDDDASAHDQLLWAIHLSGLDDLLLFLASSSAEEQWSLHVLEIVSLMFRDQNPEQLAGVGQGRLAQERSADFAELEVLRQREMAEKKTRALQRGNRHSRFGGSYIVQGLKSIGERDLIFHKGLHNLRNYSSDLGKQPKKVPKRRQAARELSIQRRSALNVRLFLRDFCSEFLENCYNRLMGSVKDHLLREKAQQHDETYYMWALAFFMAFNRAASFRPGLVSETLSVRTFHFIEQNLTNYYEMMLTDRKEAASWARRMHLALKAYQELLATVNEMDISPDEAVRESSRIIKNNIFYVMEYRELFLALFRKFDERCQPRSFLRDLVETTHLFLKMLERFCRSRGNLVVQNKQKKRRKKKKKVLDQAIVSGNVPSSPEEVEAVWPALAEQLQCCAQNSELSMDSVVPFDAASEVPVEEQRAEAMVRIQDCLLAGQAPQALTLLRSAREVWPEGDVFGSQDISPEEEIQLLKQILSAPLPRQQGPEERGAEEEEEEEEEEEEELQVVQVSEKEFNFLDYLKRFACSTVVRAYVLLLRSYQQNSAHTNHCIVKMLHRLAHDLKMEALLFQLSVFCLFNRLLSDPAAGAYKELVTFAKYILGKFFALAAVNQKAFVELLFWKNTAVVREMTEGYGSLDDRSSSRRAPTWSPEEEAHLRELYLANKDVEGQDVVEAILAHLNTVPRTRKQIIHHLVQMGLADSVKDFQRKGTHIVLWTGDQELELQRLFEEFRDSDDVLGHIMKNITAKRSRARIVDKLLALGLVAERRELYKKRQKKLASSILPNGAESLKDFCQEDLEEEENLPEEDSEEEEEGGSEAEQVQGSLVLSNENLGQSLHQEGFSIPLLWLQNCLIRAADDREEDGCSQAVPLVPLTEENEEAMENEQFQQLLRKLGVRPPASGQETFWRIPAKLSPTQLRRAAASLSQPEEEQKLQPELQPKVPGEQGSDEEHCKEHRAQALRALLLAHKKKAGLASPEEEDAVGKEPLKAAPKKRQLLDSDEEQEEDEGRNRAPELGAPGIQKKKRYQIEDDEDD

T1: DDX11-3xFlag wild type (human) (UniProt Q96FC9)
T1 sequence: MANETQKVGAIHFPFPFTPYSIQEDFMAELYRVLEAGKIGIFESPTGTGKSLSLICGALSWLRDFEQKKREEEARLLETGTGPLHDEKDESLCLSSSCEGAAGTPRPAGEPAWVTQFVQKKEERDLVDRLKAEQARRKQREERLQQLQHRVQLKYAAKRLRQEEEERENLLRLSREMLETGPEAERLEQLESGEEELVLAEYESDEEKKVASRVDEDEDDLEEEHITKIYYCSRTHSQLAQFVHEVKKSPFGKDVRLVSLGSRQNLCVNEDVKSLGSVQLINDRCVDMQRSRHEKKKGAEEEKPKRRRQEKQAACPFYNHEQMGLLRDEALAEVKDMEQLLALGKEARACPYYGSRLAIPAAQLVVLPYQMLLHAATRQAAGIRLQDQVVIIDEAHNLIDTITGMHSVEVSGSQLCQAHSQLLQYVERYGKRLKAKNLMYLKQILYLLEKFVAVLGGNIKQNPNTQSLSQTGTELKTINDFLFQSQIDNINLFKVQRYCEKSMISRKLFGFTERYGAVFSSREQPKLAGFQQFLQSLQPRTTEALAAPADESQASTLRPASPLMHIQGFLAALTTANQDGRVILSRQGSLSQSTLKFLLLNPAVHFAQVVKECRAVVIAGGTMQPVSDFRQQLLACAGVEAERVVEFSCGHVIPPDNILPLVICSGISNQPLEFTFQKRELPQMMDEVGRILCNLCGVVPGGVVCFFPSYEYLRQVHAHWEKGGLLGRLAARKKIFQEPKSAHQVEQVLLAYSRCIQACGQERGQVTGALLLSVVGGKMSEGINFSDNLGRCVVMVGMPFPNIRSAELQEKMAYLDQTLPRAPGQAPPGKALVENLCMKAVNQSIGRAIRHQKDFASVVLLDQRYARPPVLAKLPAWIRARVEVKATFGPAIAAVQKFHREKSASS

T2: DDX11-3xFlag Q23A mutant (human) (UniProt Q96FC9)
T2 sequence: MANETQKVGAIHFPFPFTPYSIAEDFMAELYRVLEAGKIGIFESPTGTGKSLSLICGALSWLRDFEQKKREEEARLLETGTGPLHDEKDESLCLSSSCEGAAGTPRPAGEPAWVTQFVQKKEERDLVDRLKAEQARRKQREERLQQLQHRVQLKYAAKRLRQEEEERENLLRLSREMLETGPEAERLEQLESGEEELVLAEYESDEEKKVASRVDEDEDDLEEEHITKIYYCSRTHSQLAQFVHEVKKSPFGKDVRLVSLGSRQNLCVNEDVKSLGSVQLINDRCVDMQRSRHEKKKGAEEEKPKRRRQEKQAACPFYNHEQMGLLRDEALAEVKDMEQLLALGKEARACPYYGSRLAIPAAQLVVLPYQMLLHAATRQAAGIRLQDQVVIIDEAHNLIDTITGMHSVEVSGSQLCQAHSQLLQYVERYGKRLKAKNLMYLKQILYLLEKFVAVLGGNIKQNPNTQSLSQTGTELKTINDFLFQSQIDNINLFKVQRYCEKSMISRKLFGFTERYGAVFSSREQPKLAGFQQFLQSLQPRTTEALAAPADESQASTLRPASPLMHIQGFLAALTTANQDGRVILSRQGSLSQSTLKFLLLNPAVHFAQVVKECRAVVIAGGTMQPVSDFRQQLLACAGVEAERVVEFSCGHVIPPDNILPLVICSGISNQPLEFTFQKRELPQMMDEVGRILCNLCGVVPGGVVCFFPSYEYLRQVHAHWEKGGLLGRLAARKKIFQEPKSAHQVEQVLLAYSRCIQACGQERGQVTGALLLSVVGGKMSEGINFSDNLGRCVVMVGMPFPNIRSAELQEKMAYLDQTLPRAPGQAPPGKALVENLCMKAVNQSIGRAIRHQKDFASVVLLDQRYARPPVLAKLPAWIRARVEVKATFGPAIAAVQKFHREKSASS

T3: DDX11-3xFlag KAE mutant (human) (UniProt Q96FC9)
T3 sequence: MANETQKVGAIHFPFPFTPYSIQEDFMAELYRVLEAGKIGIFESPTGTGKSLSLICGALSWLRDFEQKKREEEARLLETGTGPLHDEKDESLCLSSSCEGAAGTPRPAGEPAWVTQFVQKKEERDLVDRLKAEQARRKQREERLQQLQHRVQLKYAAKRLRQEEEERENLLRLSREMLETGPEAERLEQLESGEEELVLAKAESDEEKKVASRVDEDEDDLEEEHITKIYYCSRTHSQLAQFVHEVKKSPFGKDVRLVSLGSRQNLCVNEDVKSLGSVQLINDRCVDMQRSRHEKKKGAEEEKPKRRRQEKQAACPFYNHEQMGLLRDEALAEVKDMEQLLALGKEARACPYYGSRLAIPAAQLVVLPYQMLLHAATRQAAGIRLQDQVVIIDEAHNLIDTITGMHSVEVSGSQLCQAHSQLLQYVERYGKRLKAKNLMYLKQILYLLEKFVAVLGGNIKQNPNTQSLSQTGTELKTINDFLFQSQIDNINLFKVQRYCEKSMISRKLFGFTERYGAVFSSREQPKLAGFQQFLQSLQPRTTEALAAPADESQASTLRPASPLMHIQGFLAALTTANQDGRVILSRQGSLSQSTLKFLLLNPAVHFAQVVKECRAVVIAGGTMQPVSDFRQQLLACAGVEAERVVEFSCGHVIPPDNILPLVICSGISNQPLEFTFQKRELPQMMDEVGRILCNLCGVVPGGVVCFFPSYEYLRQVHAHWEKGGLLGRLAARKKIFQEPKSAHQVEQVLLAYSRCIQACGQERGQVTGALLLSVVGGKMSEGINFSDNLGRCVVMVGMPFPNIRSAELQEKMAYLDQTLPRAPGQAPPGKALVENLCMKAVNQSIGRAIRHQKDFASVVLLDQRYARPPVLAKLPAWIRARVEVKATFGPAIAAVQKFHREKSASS


Columns and labels:
Test in all cases: co-IP; whole cell extracts of HEK 293T cells transiently expressing DDX11-3xFlag (wild type or mutants), anti-Flag M2 agarose beads, 50 mM Tris-HCl pH 8.0, 150 mM NaCl, 0.25% Triton X-100, 10% glycerol, 2 hr at 4 C, elution with Flag peptide; Western blot of endogenous partners
[1] = target: T1, DDX11-3xFlag wild type (human)
[2] = target: T2, DDX11-3xFlag Q23A mutant (human)
[3] = target: T3, DDX11-3xFlag KAE mutant (human)

Row | binding [1] | binding [2] | binding [3] | Molecule
1 | binds |  |  | endogenous Timeless (HEK 293T) (from UniProt Q9UNS1 1-1208)
2 |  | binds | binds | endogenous Cdc45 (HEK 293T) (protein, UniProt O75419 1-566) MFVSDFRKEFYEVVQSQRVLLFVASDVDALCACKILQALFQCDHVQYTLVPVSGWQELETAFLEHKEQFHYFILINCGANVDLLDILQPDEDTIFFVCDTHRPVNVVNVYNDTQIKLLIKQDDDLEVPAYEDIFRDEEEDEEHSGNDSDGSEPSEKRTRLEEEIVEQTMRRRQRREWEARRRDILFDYEQYEYHGTSSAMVMFELAWMLSKDLNDMLWWAIVGLTDQWVQDKITQMKYVTDVGVLQRHVSRHNHRNEDEENTLSVDCTRISFEYDLRLVLYQHWSLHDSLCNTSYTAARFKLWSVHGQKRLQEFLADMGLPLKQVKQKFQAMDISLKENLREMIEESANKFGMKDMRVQTFSIHFGFKHKFLASDVVFATMSLMESPEKDGSGTDHFIQALDSLSRSNLDKLYHGLELAKKQLRATQQTIASCLCTNLVISQGPFLYCSLMEGTPDVMLFSRPASLSLLSKHLLKSFVCSTKNRRCKLLPLVMAAPLSMEHGTVTVVGIPPETDSSDRKNFFGRAFEKAAESTSSRMLHNHFDLSVIELKAEDRSKFLDALISLLS
3 |  | binds | binds | endogenous WDHD1 (HEK 293T) (protein, UniProt O75717 1-1129) MPATRKPMRYGHTEGHTEVCFDDSGSFIVTCGSDGDVRIWEDLDDDDPKFINVGEKAYSCALKSGKLVTAVSNNTIQVHTFPEGVPDGILTRFTTNANHVVFNGDGTKIAAGSSDFLVKIVDVMDSSQQKTFRGHDAPVLSLSFDPKDIFLASASCDGSVRVWQISDQTCAISWPLLQKCNDVINAKSICRLAWQPKSGKLLAIPVEKSVKLYRRESWSHQFDLSDNFISQTLNIVTWSPCGQYLAAGSINGLIIVWNVETKDCMERVKHEKGYAICGLAWHPTCGRISYTDAEGNLGLLENVCDPSGKTSSSKVSSRVEKDYNDLFDGDDMSNAGDFLNDNAVEIPSFSKGIINDDEDDEDLMMASGRPRQRSHILEDDENSVDISMLKTGSSLLKEEEEDGQEGSIHNLPLVTSQRPFYDGPMPTPRQKPFQSGSTPLHLTHRFMVWNSIGIIRCYNDEQDNAIDVEFHDTSIHHATHLSNTLNYTIADLSHEAILLACESTDELASKLHCLHFSSWDSSKEWIIDLPQNEDIEAICLGQGWAAAATSALLLRLFTIGGVQKEVFSLAGPVVSMAGHGEQLFIVYHRGTGFDGDQCLGVQLLELGKKKKQILHGDPLPLTRKSYLAWIGFSAEGTPCYVDSEGIVRMLNRGLGNTWTPICNTREHCKGKSDHYWVVGIHENPQQLRCIPCKGSRFPPTLPRPAVAILSFKLPYCQIATEKGQMEEQFWRSVIFHNHLDYLAKNGYEYEESTKNQATKEQQELLMKMLALSCKLEREFRCVELADLMTQNAVNLAIKYASRSRKLILAQKLSELAVEKAAELTATQVEEEEEEEDFRKKLNAGYSNTATEWSQPRFRNQVEEDAEDSGEADDEEKPEIHKPGQNSFSKSTNSSDVSAKSGAVTFSSQGRVNPFKVSASSKEPAMSMNSARSTNILDNMGKSSKKSTALSRTTNNEKSPIIKPLIPKPKPKQASAASYFQKRNSQTNKTEEVKEENLKNVLSETPAICPPQNTENQRPKTGFQMWLEENRSNILSDNPDFSDEADIIKEGMIRFRVLSTEERKVWANKAKGETASEGTEAKKRKRVVDESDETENQEEKAKENLNLSKKQKPLDFSTNQKLSAFAFKQE
